Where two headings read alike, the source gives them in different places. Some entries share one result that the patent states for a list of compounds. Some ranges recur; such a range may be that of the whole group of compounds.
System: P14 cells
Assay: P14 splenocyte in vitro activation, re-stimulation and expansion
Type: cell-based, mouse
Settings: for enhanced cell proliferation: P14 cells, vs untreated

SMILES | enhanced cell proliferation | increase in the percentage and total number of virus-specific Tim3−TCF-1+CD8+ T cells (day 6, vs T cells cultured without additional sugar supplement and T cells cultured with glucose) | increase in the percentage and total number of virus-specific Tim3−TCF-1+CD8+ T cells (day 9, vs untreated T cells) | increase in the percentage and total number of virus-specific Tim3−TCF-1+CD8+ T cells
O=C[C@H](O)[C@@H](O)[C@@H](O)[C@H](O)CO [Galactose, galactose] | 1.1-2 fold |  |  | 
OC[C@H]1O[C@H](O[C@H]2O[C@H](CO)[C@@H](O)[C@H](O)[C@H]2O)[C@H](O)[C@@H](O)[C@@H]1O [Trehalose, trehalose] |  | 1.4-1.6 fold | 7-14 fold | 
OC[C@H]1O[C@@](CO)(O[C@H]2O[C@H](CO)[C@@H](O)[C@H](O)[C@H]2O)[C@@H](O)[C@@H]1O [Sucrose, sucrose] | 1.1-2 fold |  | 7-14 fold | 1.4-1.6 fold
O=C(CO)[C@@H](O)[C@H](O)[C@H](O)CO [Fructose, fructose] | 1.1-2 fold |  | 7-14 fold | 1.4-1.6 fold
OC[C@H]1O[C@@H](O[C@H]2[C@H](O)[C@@H](O)C(O)O[C@@H]2CO)[C@H](O)[C@@H](O)[C@H]1O (some centres unmarked) [Lactose, lactose] |  |  | 7-14 fold | 1.4-1.6 fold

Reference: patent publication US20250027930A1, “SMALL MOLECULES FOR REPROGRAMING ANTI-TUMOR IMMUNITY OF T CELLS” (THE SCRIPPS RESEARCH INSTITUTE, priority 2021, published 2025)
